One test concerns the target T1, GST-tagged TCRP1 (human) (UniProt Q92567).
T1 sequence: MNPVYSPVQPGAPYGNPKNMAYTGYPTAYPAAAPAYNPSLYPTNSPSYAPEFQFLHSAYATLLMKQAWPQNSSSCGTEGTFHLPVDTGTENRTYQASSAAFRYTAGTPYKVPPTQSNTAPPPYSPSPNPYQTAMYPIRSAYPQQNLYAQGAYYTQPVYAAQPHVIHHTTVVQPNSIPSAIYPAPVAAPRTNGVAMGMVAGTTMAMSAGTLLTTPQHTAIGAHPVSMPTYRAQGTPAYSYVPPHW
Briefly: pull-down; ten micrograms of GST or GST-tagged TCRP1 incubated with Tca8113/PYM cell lysates for 4 h at 4°C; immunoblot with antibodies against GST, Akt or MT1X; only the target purified.

For test [1], the target named is T2, tongue cancer resistance-associated protein 1 (TCRP1), endogenous (human (endogenous in Tca8113/PYM)) (UniProt Q92567).
T2 sequence: T1 sequence
Briefly: co-IP; Tca8113/PYM cell lysates (modified TNE buffer: 50 mM Tris pH 8.0, 150 mM NaCl, 1% Nonidet P-40) precipitated overnight at 4°C with anti-TCRP1 antibody or control IgG, protein G-agarose; immunoblot. (In general: A western blot detects proteins with antibodies after separation by electrophoresis.)

These are yes or no findings as the source states them, for the method shown. Binding seen in cells or lysates may run through a third protein. Binding can be weak; no strength is given. For some assays here: Tags and fused reporters may be left off the sequences shown.

Turning to Akt (human (endogenous in Tca8113/PYM)), the binding entry (with GST-tagged TCRP1 (human); in test [1]) was “binds” each time.
